# Experimental data: PubChem BioAssay AID1259254 (NCATS, 2017)
# Test: 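Genome-wide screen for genes that prevent DNA re-replication in cancer cells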 (primary screen)
# System: human HCT116 colorectal cancer cells
# Reagents: single siRNA against human genes
# Duration: 3 days
# Detection: 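Imaged Hoechst DNA stain sorts each cell into a cycle phase by DNA amount; per plate, G2 fraction set to 0% for non-targeting and 100% for GMNN siRNA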
# Direction: G2 robust z-score and G2 cells, % of GMNN control: higher = more G2 cells, more excess DNA replication; raw share of cells in G2: higher = larger share of cells with G2 DNA content
# Active means: 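Active siRNAs have a G2 robust z of 5 or more median absolute deviations over the median, which in these data means about 38% or higher of GMNN control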
# The whole screen tested about 59,000 reagents; shown is a part drawn at random. About 1,550 of all reagents (2.6%) count as active. 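G2 share is only a proxy for re-replication; each gene was hit by three separate siRNAs, and active genes were retested.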 Raw values are not corrected between plates. The numbers tell different reagents against one gene apart. Reagent sequences are not shown. Not stated in the record: the amount of reagent.
gene knocked down,reagent,G2 robust z-score,"G2 cells, % of GMNN control",raw share of cells in G2 (%),activity call
CDR2,1,1.29,12.1,8.25,inactive
CDR2,2,2.3,19.2,11.8,inactive
CDR2,3,0.275,4.91,6.78,inactive
ATG9B,1,-0.626,-1.43,3.12,inactive
ATG9B,2,0.792,8.54,6.35,inactive
ATG9B,3,-0.413,0.0651,3.29,inactive
NOC2L,1,0.589,7.11,5.79,inactive
NOC2L,2,0.556,6.88,7,inactive
NOC2L,3,0.689,7.81,7.32,inactive
TIMD4,1,-0.458,-0.256,3.98,inactive
TIMD4,2,-0.108,2.21,3.69,inactive
TIMD4,3,0.454,6.16,4.88,inactive
BROX,1,-0.164,1.81,4.44,inactive
BROX,2,0.55,6.83,5.02,inactive
BROX,3,-0.248,1.23,3.5,inactive
HAL,1,-0.631,-1.47,4.51,inactive
HAL,2,-0.4,0.154,5.74,inactive
HAL,3,0.732,8.12,7.18,inactive
IRAK4,1,1.72,15.1,10.3,inactive
IRAK4,2,-0.0358,2.72,6.18,inactive
IRAK4,3,3.56,28,12.6,inactive
CKMT2,1,-0.263,1.12,5.98,inactive
CKMT2,2,-1.7,-9.02,2.37,inactive
CKMT2,3,0.0389,3.24,5.17,inactive
MAPK11,1,1.79,15.6,10.8,inactive
MAPK11,2,-1.19,-5.43,3.58,inactive
MAPK11,3,-0.761,-2.39,3.18,inactive

Part of the list above, set out differently:
{"gene knocked down": "CDR2", "reagent": 1, "G2 robust z-score": 1.29, "G2 cells, % of GMNN control": 12.1, "raw share of cells in G2 (%)": 8.25, "activity call": "inactive"}
{"gene knocked down": "CDR2", "reagent": 2, "G2 robust z-score": 2.3, "G2 cells, % of GMNN control": 19.2, "raw share of cells in G2 (%)": 11.8, "activity call": "inactive"}
{"gene knocked down": "CDR2", "reagent": 3, "G2 robust z-score": 0.275, "G2 cells, % of GMNN control": 4.91, "raw share of cells in G2 (%)": 6.78, "activity call": "inactive"}
{"gene knocked down": "ATG9B", "reagent": 1, "G2 robust z-score": -0.626, "G2 cells, % of GMNN control": -1.43, "raw share of cells in G2 (%)": 3.12, "activity call": "inactive"}
{"gene knocked down": "ATG9B", "reagent": 2, "G2 robust z-score": 0.792, "G2 cells, % of GMNN control": 8.54, "raw share of cells in G2 (%)": 6.35, "activity call": "inactive"}
{"gene knocked down": "ATG9B", "reagent": 3, "G2 robust z-score": -0.413, "G2 cells, % of GMNN control": 0.0651, "raw share of cells in G2 (%)": 3.29, "activity call": "inactive"}
{"gene knocked down": "NOC2L", "reagent": 1, "G2 robust z-score": 0.589, "G2 cells, % of GMNN control": 7.11, "raw share of cells in G2 (%)": 5.79, "activity call": "inactive"}
{"gene knocked down": "NOC2L", "reagent": 2, "G2 robust z-score": 0.556, "G2 cells, % of GMNN control": 6.88, "raw share of cells in G2 (%)": 7, "activity call": "inactive"}
{"gene knocked down": "NOC2L", "reagent": 3, "G2 robust z-score": 0.689, "G2 cells, % of GMNN control": 7.81, "raw share of cells in G2 (%)": 7.32, "activity call": "inactive"}
{"gene knocked down": "TIMD4", "reagent": 1, "G2 robust z-score": -0.458, "G2 cells, % of GMNN control": -0.256, "raw share of cells in G2 (%)": 3.98, "activity call": "inactive"}

Next entries follow.
gene knocked down,reagent,G2 robust z-score,"G2 cells, % of GMNN control",raw share of cells in G2 (%),activity call
LCN6,1,-0.127,2.08,5.57,inactive
LCN6,2,-1.36,-6.61,2.81,inactive
LCN6,3,1.87,16.1,10.6,inactive
SDHD,1,-0.609,-1.32,5.24,inactive
SDHD,2,3.25,25.8,13.4,inactive
SDHD,3,2.01,17.1,9.61,inactive
ROCK2,1,-0.531,-0.771,5.35,inactive
ROCK2,2,-1,-4.08,2.37,inactive
ROCK2,3,-1.44,-7.17,2.58,inactive
NUDT22,1,-0.603,-1.28,3.68,inactive
NUDT22,2,-0.168,1.78,3.99,inactive
NUDT22,3,0.0234,3.13,3.36,inactive
C11orf58,1,-1.13,-4.96,3.04,inactive
C11orf58,2,-0.68,-1.82,3.38,inactive
C11orf58,3,-0.473,-0.361,3.04,inactive
ATP13A1,1,1.86,16.1,11.1,inactive
ATP13A1,2,0.213,4.47,6.29,inactive
ATP13A1,3,-1.18,-5.33,2.3,inactive
KLF16,1,0.0288,3.17,3.91,inactive
KLF16,2,0.311,5.16,8.24,inactive
KLF16,3,1.46,13.3,7.8,inactive
SLC34A1,1,-0.497,-0.528,5.5,inactive
SLC34A1,2,1.08,10.6,8.17,inactive
SLC34A1,3,-0.234,1.32,4.4,inactive
ZNF768,1,-0.723,-2.12,2.04,inactive
ZNF768,2,-0.152,1.9,6.77,inactive
ZNF768,3,0.58,7.05,5.85,inactive
SUFU,1,-0.975,-3.89,4.19,inactive
SUFU,2,0.124,3.84,5.66,inactive
SUFU,3,1.27,11.9,8.38,inactive
SHISAL2A,1,2.08,17.6,11.3,inactive
SHISAL2A,2,0.978,9.85,7.37,inactive
SHISAL2A,3,2.03,17.3,10.8,inactive
TMEM94,1,2.49,20.5,14.6,inactive
TMEM94,2,-0.389,0.23,4.04,inactive
TMEM94,3,1.56,13.9,8.47,inactive
TBC1D29P,1,1.3,12.1,8.97,inactive
TBC1D29P,2,0.464,6.23,6.64,inactive
TBC1D29P,3,1.14,11,7.14,inactive
ABCC3,1,-1.11,-4.86,2.33,inactive
ABCC3,2,4.61,35.4,17.7,inactive
ABCC3,3,0.0198,3.11,5.82,inactive
